Assay: Counter-screening for resazurin fluorescence (compounds in culture medium without cells)
Conditions: 12 hours

SMILES	RFU (Mean ± SEM) (1.5 µM)	RFU (Mean ± SEM) (3.1 µM)	RFU (Mean ± SEM) (6.3 µM)	RFU (Mean ± SEM) (12.5 µM)	RFU (Mean ± SEM) (25.0 µM)	RFU (Mean ± SEM) (50.0 µM)
COc1ccc(-c2ccc(C(=O)NC(C)C)c3occc23)c(C)c1 [CND0335]	132660 ± 2366 RFU	132843 ± 3615 RFU	131901 ± 2890 RFU	132612 ± 1892 RFU	134083 ± 2617 RFU	134468 ± 2782 RFU
COc1ccc(-c2ccc(C(=O)Nc3ccc(C(C)C)cc3)c3occc23)c(C)c1 [CND0364]	126001 ± 1098 RFU	125687 ± 1255 RFU	125566 ± 922 RFU	146299 ± 19909 RFU	126875 ± 548 RFU	127260 ± 1785 RFU
COc1ccc(-c2coc3c(C(=O)Nc4cccnc4)cccc23)c(C)c1 [CND0366]	124331 ± 405 RFU	124434 ± 115 RFU	126123 ± 307 RFU	126522 ± 346 RFU	127193 ± 177 RFU	128162 ± 70 RFU
COc1ccc(-c2coc3c(C(=O)NC(C)C)cccc23)c(C)c1 [CND0415]	123414 ± 429 RFU	124287 ± 99 RFU	124545 ± 453 RFU	124241 ± 566 RFU	124969 ± 805 RFU	123928 ± 552 RFU
COc1cccc(Nc2cc3c(cn2)cc(-c2cccc(C(F)(F)F)c2)n3C)c1 [CND0545]	123282 ± 359 RFU	124100 ± 341 RFU	124272 ± 340 RFU	124622 ± 203 RFU	124325 ± 663 RFU	123847 ± 427 RFU
CC(C)c1ccc(NC(=O)c2csc(C(O)C(C)C)n2)cc1 (stereo not drawn) [CND3514]	123639 ± 696 RFU	123322 ± 336 RFU	122856 ± 122 RFU	124101 ± 904 RFU	124121 ± 800 RFU	123902 ± 509 RFU

— PMC3814572, “Identification of Novel Compounds Inhibiting Chikungunya Virus-Induced Cell Death by High Throughput Screening of a Kinase Inhibitor Library” (PLoS Neglected Tropical Diseases, 2013)
